Data reported in paper PMC6458711.
Results are given in words; binding and its absence hold for the method and conditions named. Binding seen in cells or lysates may run through a third protein. Some binding calls cover weakened binding; strength is not graded here. Tags and fused reporters may be left off the sequences shown.

Amino acid sequences for entries named in this document (tags omitted).
UniProt P27361: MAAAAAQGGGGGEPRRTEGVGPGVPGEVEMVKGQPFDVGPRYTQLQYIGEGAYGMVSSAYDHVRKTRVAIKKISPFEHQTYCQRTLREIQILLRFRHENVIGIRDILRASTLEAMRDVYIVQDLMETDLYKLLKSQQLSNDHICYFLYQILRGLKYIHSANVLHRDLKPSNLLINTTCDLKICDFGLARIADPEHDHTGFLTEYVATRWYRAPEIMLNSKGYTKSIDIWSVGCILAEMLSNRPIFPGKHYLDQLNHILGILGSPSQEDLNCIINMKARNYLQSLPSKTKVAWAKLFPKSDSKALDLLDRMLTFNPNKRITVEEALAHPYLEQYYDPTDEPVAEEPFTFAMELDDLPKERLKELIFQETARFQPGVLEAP

Columns and labels:
[1] = target: T1, Transketolase (TKT) wild type, Flag-tagged (human) (UniProt P29401); experiment: co-IP; cross-linking Co-IP and western blot with TKT as bait: Huh7 cells cross-linked, nuclei extracted and lysed by sonication; TKT antibody for Co-IP; blots with Flag, EGFR, MAPK3, IPO4 and NUP54 antibodies
T1 sequence: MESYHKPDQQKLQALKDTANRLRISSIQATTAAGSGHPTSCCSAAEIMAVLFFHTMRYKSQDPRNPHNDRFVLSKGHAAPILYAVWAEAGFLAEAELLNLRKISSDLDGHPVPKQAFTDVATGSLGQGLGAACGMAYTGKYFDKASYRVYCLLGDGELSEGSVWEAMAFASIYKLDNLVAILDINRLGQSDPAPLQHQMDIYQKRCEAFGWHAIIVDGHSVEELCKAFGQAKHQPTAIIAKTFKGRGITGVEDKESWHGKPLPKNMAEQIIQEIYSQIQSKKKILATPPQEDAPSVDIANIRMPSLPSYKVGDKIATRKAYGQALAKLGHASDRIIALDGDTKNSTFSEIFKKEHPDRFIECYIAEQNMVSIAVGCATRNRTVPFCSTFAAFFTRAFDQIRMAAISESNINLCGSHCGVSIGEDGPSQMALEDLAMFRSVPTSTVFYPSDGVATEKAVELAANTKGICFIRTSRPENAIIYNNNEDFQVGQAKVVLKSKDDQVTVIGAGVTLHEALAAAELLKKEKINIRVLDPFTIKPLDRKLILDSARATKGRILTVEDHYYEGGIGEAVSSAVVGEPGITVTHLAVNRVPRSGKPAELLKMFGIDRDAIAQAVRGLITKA

[2] = target: epidermal growth factor receptor (EGFR) (human (endogenous in Huh7)) (UniProt P00533); experiment: co-IP; cross-linking Co-IP and western blot with TKT as prey: TKT-WT overexpressing Huh7 cells cross-linked, nuclei extracted and lysed by sonication; EGFR/MAPK3 antibodies and IgG control for Co-IP; blots with Flag and TKT antibodies
[3] = target: mitogen-activated protein kinase 3 (MAPK3) (human (endogenous in Huh7)) (UniProt P27361); experiment: as above

In the case of “mitogen-activated protein kinase 3 (MAPK3) (from UniProt P27361 1-379) (enzyme)”, the binding [1] is reported as “binds”.

In the case of “epidermal growth factor receptor (EGFR) (from UniProt P00533 25-1210)”, the binding [1] is reported as “binds”.

B1: nucleoporin 54 (NUP54) (protein, UniProt Q7Z3B4 1-507)
chain: MAFNFGAPSGTSGTAAATAAPAGGFGGFGTTSTTAGSAFSFSAPTNTGTTGLFGGTQNKGFGFGTGFGTTTGTSTGLGTGLGTGLGFGGFNTQQQQQTTLGGLFSQPTQAPTQSNQLINTASALSAPTLLGDERDAILAKWNQLQAFWGTGKGYFNNNIPPVEFTQENPFCRFKAVGYSCMPSNKDEDGLVVLVFNKKETEIRSQQQQLVESLHKVLGGNQTLTVNVEGTKTLPDDQTEVVIYVVERSPNGTSRRVPATTLYAHFEQANIKTQLQQLGVTLSMTRTELSPAQIKQLLQNPPAGVDPIIWEQAKVDNPDSEKLIPVPMVGFKELLRRLKVQDQMTKQHQTRLDIISEDISELQKNQTTSVAKIAQYKRKLMDLSHRTLQVLIKQEIQRKSGYAIQADEEQLRVQLDTIQGELNAPTQFKGRLNELMSQIRMQNHFGAVRSEERYYIDADLLREIKQHLKQQQEGLSHLISIIKDDLEDIKLVEHGLNETIHIRGGVFS
B1 was tested, and the binding [1] was “binds”.

B2: Transketolase (TKT) wild type, Flag-tagged (enzyme, UniProt P29401-1 1-623)
chain: T1 sequence
B2 was tested, and the binding [2] was “binds” and the binding [3] was “binds”.
